# Laboratory results taken from the supplement of paper PMC12067093, “Discovery and optimisation of a covalent ligand for TRIM25 and its application to targeted protein ubiquitination” (Chemical Science, 2025).
# Amino acid sequences for entries named in this document (tags omitted). A change or cut given only in a name is not applied to a line headed by its entry.
# UniProt Q00535, whole entry, looked up: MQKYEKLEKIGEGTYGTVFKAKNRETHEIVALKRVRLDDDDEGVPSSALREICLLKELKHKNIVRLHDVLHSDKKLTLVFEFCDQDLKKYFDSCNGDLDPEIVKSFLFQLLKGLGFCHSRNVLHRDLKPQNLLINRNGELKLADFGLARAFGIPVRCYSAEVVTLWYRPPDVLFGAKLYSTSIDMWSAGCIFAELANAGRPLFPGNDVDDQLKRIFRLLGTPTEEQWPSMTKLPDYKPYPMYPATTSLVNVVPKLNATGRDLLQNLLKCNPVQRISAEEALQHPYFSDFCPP
# UniProt Q5VT06: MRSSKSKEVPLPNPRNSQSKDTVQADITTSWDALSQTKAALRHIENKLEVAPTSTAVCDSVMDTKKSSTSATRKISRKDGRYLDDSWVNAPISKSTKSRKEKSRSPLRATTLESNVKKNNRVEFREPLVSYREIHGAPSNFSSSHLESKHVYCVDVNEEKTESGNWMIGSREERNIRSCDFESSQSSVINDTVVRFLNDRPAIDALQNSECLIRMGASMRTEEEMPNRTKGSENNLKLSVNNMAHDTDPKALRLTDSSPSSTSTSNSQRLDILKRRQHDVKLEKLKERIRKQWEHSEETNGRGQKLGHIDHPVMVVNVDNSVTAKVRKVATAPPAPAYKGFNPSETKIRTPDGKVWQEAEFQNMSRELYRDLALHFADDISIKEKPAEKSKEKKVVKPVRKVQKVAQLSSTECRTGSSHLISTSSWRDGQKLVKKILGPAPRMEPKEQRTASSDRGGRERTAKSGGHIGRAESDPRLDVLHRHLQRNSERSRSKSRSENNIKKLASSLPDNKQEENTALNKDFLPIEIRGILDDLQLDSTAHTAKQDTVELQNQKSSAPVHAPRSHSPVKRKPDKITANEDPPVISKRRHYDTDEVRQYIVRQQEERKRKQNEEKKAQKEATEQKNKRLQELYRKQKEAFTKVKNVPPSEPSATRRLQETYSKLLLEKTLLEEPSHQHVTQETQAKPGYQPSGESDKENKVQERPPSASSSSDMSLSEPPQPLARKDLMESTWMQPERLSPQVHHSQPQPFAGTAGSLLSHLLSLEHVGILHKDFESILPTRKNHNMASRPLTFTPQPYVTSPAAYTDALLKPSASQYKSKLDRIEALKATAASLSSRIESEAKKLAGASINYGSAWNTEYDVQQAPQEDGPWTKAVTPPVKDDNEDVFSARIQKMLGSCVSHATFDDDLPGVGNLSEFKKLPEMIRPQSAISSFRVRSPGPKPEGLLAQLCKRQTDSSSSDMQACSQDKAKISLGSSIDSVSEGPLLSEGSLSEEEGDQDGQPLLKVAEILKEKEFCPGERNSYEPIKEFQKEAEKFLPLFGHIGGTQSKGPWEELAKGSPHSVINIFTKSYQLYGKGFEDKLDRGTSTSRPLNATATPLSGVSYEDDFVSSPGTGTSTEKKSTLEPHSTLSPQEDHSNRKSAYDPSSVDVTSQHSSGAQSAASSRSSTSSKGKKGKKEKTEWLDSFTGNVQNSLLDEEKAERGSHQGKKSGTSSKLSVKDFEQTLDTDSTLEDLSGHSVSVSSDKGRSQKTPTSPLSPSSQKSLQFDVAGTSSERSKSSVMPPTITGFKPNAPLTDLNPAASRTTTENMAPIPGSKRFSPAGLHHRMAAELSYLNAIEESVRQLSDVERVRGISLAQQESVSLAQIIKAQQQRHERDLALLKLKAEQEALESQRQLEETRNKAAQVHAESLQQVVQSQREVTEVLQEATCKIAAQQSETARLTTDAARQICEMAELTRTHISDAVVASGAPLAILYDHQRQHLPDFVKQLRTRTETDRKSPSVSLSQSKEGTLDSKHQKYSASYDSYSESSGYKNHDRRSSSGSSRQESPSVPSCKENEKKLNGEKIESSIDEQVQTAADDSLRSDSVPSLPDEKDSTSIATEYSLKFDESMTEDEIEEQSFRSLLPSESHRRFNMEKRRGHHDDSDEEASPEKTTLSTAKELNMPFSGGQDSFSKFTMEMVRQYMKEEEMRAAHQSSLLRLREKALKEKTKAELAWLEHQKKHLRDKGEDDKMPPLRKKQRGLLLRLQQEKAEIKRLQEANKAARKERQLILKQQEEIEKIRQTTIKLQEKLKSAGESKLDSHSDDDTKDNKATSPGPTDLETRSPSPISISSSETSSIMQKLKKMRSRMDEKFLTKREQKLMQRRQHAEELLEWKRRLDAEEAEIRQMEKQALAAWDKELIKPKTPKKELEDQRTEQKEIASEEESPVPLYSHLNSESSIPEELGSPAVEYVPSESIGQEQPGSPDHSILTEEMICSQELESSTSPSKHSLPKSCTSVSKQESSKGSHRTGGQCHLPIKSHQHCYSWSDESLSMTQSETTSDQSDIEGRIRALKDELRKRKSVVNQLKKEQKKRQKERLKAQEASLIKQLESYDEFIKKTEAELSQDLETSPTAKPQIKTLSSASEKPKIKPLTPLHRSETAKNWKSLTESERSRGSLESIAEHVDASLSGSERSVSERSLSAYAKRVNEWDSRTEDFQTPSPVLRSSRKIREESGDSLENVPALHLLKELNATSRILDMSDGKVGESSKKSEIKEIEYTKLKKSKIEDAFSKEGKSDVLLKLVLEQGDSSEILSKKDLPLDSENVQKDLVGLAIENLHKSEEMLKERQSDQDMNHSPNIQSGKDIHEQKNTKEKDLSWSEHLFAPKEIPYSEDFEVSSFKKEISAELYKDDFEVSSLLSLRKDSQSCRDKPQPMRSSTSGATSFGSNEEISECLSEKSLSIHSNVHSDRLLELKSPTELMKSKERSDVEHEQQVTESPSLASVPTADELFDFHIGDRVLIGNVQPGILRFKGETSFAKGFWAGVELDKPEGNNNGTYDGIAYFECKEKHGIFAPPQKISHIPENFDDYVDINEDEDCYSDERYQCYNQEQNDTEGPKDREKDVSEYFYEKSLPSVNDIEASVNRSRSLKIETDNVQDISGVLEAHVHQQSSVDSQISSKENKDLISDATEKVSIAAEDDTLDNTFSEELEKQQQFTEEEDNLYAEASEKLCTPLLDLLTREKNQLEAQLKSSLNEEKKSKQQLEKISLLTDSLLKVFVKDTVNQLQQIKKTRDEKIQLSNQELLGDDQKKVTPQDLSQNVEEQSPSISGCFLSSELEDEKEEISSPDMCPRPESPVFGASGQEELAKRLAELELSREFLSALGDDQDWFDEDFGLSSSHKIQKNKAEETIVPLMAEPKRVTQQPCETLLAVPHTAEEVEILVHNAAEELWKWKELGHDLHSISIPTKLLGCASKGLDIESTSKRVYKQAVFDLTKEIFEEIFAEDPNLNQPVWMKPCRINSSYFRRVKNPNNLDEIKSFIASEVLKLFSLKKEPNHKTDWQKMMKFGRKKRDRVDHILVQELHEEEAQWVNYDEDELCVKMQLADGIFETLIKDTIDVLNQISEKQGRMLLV
# UniProt P32970: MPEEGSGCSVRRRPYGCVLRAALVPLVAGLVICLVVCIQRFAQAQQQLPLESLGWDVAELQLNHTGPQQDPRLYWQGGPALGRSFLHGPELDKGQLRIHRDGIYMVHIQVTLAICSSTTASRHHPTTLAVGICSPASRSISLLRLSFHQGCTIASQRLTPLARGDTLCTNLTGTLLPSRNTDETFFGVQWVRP
# UniProt Q76N32: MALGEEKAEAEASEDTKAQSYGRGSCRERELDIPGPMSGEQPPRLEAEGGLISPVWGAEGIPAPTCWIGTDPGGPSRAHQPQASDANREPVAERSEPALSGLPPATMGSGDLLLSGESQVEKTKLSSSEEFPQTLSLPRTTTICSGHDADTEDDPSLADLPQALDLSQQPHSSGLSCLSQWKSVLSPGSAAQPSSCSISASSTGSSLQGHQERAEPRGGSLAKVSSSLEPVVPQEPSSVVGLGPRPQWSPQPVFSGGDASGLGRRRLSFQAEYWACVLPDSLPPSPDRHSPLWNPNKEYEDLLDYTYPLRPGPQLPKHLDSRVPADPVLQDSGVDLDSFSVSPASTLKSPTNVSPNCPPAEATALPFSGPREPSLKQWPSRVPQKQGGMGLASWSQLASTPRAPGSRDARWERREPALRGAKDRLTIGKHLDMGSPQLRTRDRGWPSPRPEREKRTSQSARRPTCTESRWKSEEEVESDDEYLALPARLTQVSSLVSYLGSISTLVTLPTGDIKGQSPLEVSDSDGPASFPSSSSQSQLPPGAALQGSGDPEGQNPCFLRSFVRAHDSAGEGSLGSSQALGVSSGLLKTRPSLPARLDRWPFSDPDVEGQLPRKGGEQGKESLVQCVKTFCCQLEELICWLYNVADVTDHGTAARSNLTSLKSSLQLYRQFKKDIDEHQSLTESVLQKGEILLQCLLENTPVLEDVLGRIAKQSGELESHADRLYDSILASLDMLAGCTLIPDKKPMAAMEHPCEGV
# UniProt Q9NPY3: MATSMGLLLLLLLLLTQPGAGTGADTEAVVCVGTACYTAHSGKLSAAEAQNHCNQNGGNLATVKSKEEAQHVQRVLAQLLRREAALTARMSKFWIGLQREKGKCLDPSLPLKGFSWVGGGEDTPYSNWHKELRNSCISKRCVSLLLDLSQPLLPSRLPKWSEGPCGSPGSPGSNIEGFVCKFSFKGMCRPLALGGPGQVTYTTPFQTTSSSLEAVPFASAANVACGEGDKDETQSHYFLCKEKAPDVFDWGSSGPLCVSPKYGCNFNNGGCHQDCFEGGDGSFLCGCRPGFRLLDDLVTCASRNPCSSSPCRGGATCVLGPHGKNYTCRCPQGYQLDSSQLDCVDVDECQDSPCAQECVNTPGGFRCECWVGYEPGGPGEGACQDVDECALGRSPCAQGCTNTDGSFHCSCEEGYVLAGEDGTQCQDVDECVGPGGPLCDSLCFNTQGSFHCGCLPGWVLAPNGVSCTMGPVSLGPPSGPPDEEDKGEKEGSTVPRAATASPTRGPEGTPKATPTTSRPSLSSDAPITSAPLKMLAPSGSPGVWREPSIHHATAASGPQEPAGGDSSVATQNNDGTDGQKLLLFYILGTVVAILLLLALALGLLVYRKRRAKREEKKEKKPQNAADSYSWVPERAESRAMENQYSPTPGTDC
# UniProt P50991: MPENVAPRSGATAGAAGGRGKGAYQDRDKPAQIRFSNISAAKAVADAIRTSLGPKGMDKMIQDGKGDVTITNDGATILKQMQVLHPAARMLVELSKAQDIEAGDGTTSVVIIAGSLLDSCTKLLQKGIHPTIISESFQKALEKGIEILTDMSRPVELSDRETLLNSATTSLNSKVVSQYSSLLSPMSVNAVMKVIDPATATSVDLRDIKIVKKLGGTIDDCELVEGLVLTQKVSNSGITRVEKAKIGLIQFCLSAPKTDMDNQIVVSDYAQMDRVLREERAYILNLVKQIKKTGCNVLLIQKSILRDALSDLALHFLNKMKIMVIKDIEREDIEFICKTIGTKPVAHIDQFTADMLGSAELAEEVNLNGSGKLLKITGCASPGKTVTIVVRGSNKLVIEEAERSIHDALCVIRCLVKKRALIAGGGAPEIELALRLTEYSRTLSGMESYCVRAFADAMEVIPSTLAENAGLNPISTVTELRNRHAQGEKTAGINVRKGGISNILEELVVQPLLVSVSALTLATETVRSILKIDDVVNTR
# UniProt Q69YH5: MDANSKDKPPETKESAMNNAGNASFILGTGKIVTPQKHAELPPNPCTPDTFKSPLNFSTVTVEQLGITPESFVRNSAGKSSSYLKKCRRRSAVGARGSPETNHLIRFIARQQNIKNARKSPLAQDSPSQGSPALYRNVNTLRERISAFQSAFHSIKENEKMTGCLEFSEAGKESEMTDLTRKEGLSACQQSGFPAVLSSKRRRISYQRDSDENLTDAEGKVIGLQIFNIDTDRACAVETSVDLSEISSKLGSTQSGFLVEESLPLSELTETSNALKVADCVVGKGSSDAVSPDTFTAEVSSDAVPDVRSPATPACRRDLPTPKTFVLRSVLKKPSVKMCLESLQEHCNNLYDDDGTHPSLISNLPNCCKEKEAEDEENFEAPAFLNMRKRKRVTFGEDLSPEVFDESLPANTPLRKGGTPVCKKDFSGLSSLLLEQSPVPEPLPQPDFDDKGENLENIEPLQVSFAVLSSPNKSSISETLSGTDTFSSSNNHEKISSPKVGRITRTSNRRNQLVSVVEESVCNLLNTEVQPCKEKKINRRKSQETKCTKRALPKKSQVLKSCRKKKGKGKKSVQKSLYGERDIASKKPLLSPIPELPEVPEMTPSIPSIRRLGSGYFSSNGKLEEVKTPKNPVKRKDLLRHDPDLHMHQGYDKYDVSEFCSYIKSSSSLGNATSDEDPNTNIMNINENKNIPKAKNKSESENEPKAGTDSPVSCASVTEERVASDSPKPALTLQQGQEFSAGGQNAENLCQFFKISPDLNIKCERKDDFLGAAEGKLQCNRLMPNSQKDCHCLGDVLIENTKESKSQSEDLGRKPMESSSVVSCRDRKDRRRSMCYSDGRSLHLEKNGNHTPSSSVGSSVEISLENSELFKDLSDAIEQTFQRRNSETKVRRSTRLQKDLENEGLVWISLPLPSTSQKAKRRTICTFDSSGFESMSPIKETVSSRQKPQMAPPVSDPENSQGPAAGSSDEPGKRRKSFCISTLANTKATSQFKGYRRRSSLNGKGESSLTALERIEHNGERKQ
# The other results are listed elsewhere or left out.
# Compound: CC1Cc2ccccc2N1C(=O)C1CCCN(C1)C(=O)CCl (mixture of isomers) [TRIM25 ligand 11 (diastereomer mixture)]
# Test: probe-labelled cysteine peptide fold change vs DMSO (competition) (log2 fold change); higher = less target engagement (more negative = stronger competition)
# Settings: THP-1, incubation time: 4 h
# 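Note: competitive chemoproteomic profiling in live THP-1 cells with an iodoacetamide desthiobiotin (IA-DTB) probe, comparing probe-labelled peptide intensities in compound-treated cells against DMSO-treated controls.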
Target,probe-labelled cysteine peptide fold change (10 µM),probe-labelled cysteine peptide fold change (50 µM)
CEP63_Q96MT8_108_LHEELCILK (UniProt Q96MT8),-0.057,-0.131
CD38_P28907_119_LGTQTVPCNK (UniProt P28907),-0.012,0.0468
CDK5_Q00535_94_YFDSCNGDLDPEIVK (UniProt Q00535),0.103,0.101
CDT1_Q9H211_163_ASAQDAGESCTPEAEGRPEEPCGEK (UniProt Q9H211),-0.19,-0.248
CEP170_Q5SW79_776_CREETFKQESQPPEK (UniProt Q5SW79),-0.225,-0.266
CD44_P16070_53_TEAADLCK (UniProt P16070),0.049,0.153
CENPJ_Q9HC77_634_TNPADPISHCNR (UniProt Q9HC77),0.418,0.296
CDK5_Q00535_117_GLGFCHSR (UniProt Q00535),0.0521,0.0715
CDKN2AIP_Q9NXV6_503_SSQESIVCELR (UniProt Q9NXV6),0.103,0.18
CDK12_Q9NYV4_1039_MAPPDLPHWQDCHELWSK (UniProt Q9NYV4),-0.00591,-0.241
CD46_P15529_162_VLCTPPPK (UniProt P15529),0.0462,-0.17
CDC42BPB_Q9Y5S2_1328_GCQLMATATLKR (UniProt Q9Y5S2),0.00823,-0.0497
CENPV_Q7Z7K6_216_AQHTFCK (UniProt Q7Z7K6),0.0351,0.0383
CENPV_Q7Z7K6_154_HTGGCHCGAVR (UniProt Q7Z7K6),0.106,0.301
CEP85_Q6P2H3_380_PAPFGDVCLLR (UniProt Q6P2H3),-0.0377,0.0929
CCT8_P50990_149_KAHEILPNLVCCSAK (UniProt P50990),-0.0904,-0.122
CD40_P25942_186_TDVVCGPQDR (UniProt P25942),0.143,0.244
CDC42_P60953_157_YVECSALTQK (UniProt P60953),0.0184,0.047
CCT8_P50990_148+149_KAHEILPNLVCCSAK (UniProt P50990),-0.187,-0.0657
CENPF_P49454_1426_ILHDQHCQMSSK (UniProt P49454),0.0226,-0.0992
CENPF_P49454_2985_EMLETQVAHLCSQQSK (UniProt P49454),0.00541,0.0165
CENPK_Q9BS16_66_CLTAELSQWQK (UniProt Q9BS16),-0.0906,-0.0614

Target,probe-labelled cysteine peptide fold change (10 µM),probe-labelled cysteine peptide fold change (50 µM)
CENPF_P49454_503_EVCHLEAELK (UniProt P49454),-0.0277,0.141
CEP76_Q8TAP6_156_SKPVPCACEPDFHDGFLLEVHR (UniProt Q8TAP6),0.0132,0.0437
CEP350_Q5VT06_3083_VDHILVQELHEEEAQWVNYDEDELCVK (UniProt Q5VT06),0.00893,-0.0239
CDK2_P24941_177_APEILLGCK (UniProt P24941),0.0172,0.148
CCT7_Q99832_29_EGTDSSQGIPQLVSNISACQVIAEAVR (UniProt Q99832),0.000628,-0.0225
CEP350_Q5VT06_2412_DSQSCR (UniProt Q5VT06),-0.153,-0.218
CDCA7L_Q96GN5_422_CATGILIHLAK (UniProt Q96GN5),-0.204,-0.214
CEP250_Q9BV73_1557_QLVTLECLALELEENHHK (UniProt Q9BV73),-0.04,0.00998
CDK5RAP3_Q96JB5_150_KEEECQAGAAEMR (UniProt Q96JB5),-0.113,-0.132
CCT8_P50990_347_LTPPVLEEMGHCDSVYLSEVGDTQVVVFKHEKEDGAISTIVLR (UniProt P50990),-0.525,-0.451
CD70_P32970_133_HHPTTLAVGICSPASR (UniProt P32970),-0.0288,-0.285
CDC27_P30260_481_GYLALCSYNCK (UniProt P30260),-0.0893,0.21
CDCA4_Q9BXL8_10_CVGHEEDVEGALAGLK (UniProt Q9BXL8),-0.187,-0.132
CES1_P23141_116_LSEDCLYLNIYTPADLTK (UniProt P23141),0.136,0.243
CDYL_Q9Y232_571_MELEQANERECEVLK (UniProt Q9Y232),-0.0968,-0.0996
CDC20_Q12834_403_IWNVCSGACLSAVDAHSQVCSILWSPHYK (UniProt Q12834),0.187,0.244
CDC16_Q13042_163_EALKLDVYCFEAFDLLTSHHMLTAQEEK (UniProt Q13042),-0.0995,-0.0304
CEP68_Q76N32_465_RPTCTESR (UniProt Q76N32),-0.0384,-0.0237
CD38_P28907_275_NIQFSCK (UniProt P28907),0.0138,-0.0974
CD151_P48509_192_TVVALCGQR (UniProt P48509),0.0259,0.122
CDC23_Q9UJX2_324_SELSYLAHNLCEIDK (UniProt Q9UJX2),0.169,0.0288
CD93_Q9NPY3_53_LSAAEAQNHCNQNGGNLATVK (UniProt Q9NPY3),-0.148,-0.128

Target,probe-labelled cysteine peptide fold change (10 µM),probe-labelled cysteine peptide fold change (50 µM)
CEP55_Q53EZ4_462_DLLVHVEYCSK (UniProt Q53EZ4),0.0267,0.0517
CEP76_Q8TAP6_414_GVPHAWVMTCGTDGAITFWESLTGHR (UniProt Q8TAP6),0.105,-0.123
CELF2_O95319_143_CNENDIR (UniProt O95319),-0.0913,0.00912
CDC73_Q6P1J9_145_IEDEECVRLDK (UniProt Q6P1J9),-0.292,-0.274
CCT4_P50991_221_LGGTIDDCELVEGLVLTQK (UniProt P50991),0.0423,-0.0108
CELF2_O95319_201_AMHQSQTMEGCSSPIVVK (UniProt O95319),0.079,-0.396
CDC37_Q16543_336_CIDSGLWVPNSK (UniProt Q16543),0.000899,-0.0455
CELF2_O95319_85_GCCFVTFYTR (UniProt O95319),-0.134,-0.0412
CCT8_P50990_149_AHEILPNLVCCSAK (UniProt P50990),-0.0788,0.0945
CCT4_P50991_252_IGLIQFCLSAPK (UniProt P50991),-0.143,-0.124
CCT7_Q99832_326_RTMMACGGSIQTSVNALSADVLGR (UniProt Q99832),0.112,0.227
CDK5RAP3_Q96JB5_165_EQFYHSCK (UniProt Q96JB5),0.0193,-0.0693
CDC27_P30260_184_FTSLQNFSNCLPNSCTTQVPNHSLSHR (UniProt P30260),-0.0579,-0.387
CD70_P32970_151_LSFHQGCTIASQR (UniProt P32970),0.0737,-0.00783
CDC25C_P30307_42_DTSFTVCPDVPR (UniProt P30307),0.047,-0.293
CENPC_Q03188_291_HAATAPPHSCPPDDTK (UniProt Q03188),-0.109,-0.114
CEP192_Q8TEP8_1562_APVEVAPCADVVTR (UniProt Q8TEP8),0.0187,-0.0557
CEPT1_Q9Y6K0_11+30_CGDSHPESPVGFGHMSTTGCVLNK (UniProt Q9Y6K0),0.118,-0.555
CENPH_Q9H3R5_35_AGGPPQVAGAQAACSEDR (UniProt Q9H3R5),0.0306,-0.0667
CDCA2_Q69YH5_315_SPATPACR (UniProt Q69YH5),0.112,-0.199
CD3EAP_O15446_150_FCAFGGNPPVTGPR (UniProt O15446),-0.187,-0.273
CENPI_Q92674_332_EMSLSDCLNR (UniProt Q92674),-0.0185,-0.0842

# Reformatted bar-delimited: part of the list above
Target | probe-labelled cysteine peptide fold change (10 µM) | probe-labelled cysteine peptide fold change (50 µM)
CEP68_Q76N32_465_RPTCTESR (UniProt Q76N32) | -0.0384 | -0.0237
CD38_P28907_275_NIQFSCK (UniProt P28907) | 0.0138 | -0.0974
CD151_P48509_192_TVVALCGQR (UniProt P48509) | 0.0259 | 0.122
CDC23_Q9UJX2_324_SELSYLAHNLCEIDK (UniProt Q9UJX2) | 0.169 | 0.0288
CD93_Q9NPY3_53_LSAAEAQNHCNQNGGNLATVK (UniProt Q9NPY3) | -0.148 | -0.128
CEP55_Q53EZ4_462_DLLVHVEYCSK (UniProt Q53EZ4) | 0.0267 | 0.0517
CEP76_Q8TAP6_414_GVPHAWVMTCGTDGAITFWESLTGHR (UniProt Q8TAP6) | 0.105 | -0.123
CELF2_O95319_143_CNENDIR (UniProt O95319) | -0.0913 | 0.00912
CDC73_Q6P1J9_145_IEDEECVRLDK (UniProt Q6P1J9) | -0.292 | -0.274
CCT4_P50991_221_LGGTIDDCELVEGLVLTQK (UniProt P50991) | 0.0423 | -0.0108
CELF2_O95319_201_AMHQSQTMEGCSSPIVVK (UniProt O95319) | 0.079 | -0.396
CDC37_Q16543_336_CIDSGLWVPNSK (UniProt Q16543) | 0.000899 | -0.0455
CELF2_O95319_85_GCCFVTFYTR (UniProt O95319) | -0.134 | -0.0412
CCT8_P50990_149_AHEILPNLVCCSAK (UniProt P50990) | -0.0788 | 0.0945
CCT4_P50991_252_IGLIQFCLSAPK (UniProt P50991) | -0.143 | -0.124
CCT7_Q99832_326_RTMMACGGSIQTSVNALSADVLGR (UniProt Q99832) | 0.112 | 0.227
CDK5RAP3_Q96JB5_165_EQFYHSCK (UniProt Q96JB5) | 0.0193 | -0.0693
CDC27_P30260_184_FTSLQNFSNCLPNSCTTQVPNHSLSHR (UniProt P30260) | -0.0579 | -0.387
CD70_P32970_151_LSFHQGCTIASQR (UniProt P32970) | 0.0737 | -0.00783
CDC25C_P30307_42_DTSFTVCPDVPR (UniProt P30307) | 0.047 | -0.293
CENPC_Q03188_291_HAATAPPHSCPPDDTK (UniProt Q03188) | -0.109 | -0.114
CEP192_Q8TEP8_1562_APVEVAPCADVVTR (UniProt Q8TEP8) | 0.0187 | -0.0557
CEPT1_Q9Y6K0_11+30_CGDSHPESPVGFGHMSTTGCVLNK (UniProt Q9Y6K0) | 0.118 | -0.555
CENPH_Q9H3R5_35_AGGPPQVAGAQAACSEDR (UniProt Q9H3R5) | 0.0306 | -0.0667

# Next part:

Target,probe-labelled cysteine peptide fold change (10 µM),probe-labelled cysteine peptide fold change (50 µM)
CCT8_P50990_430_QITSYGETCPGLEQYAIK (UniProt P50990),-0.174,-0.123
CENPF_P49454_1947_LEYFSCDHQELLQR (UniProt P49454),0.0929,0.0817
CDC23_Q9UJX2_532_LWDEASTCAQK (UniProt Q9UJX2),0.0895,0.121
CEP350_Q5VT06_413_VAQLSSTECR (UniProt Q5VT06),-0.033,0.0961
CEBPZ_Q03701_374_ALTVAHELLCNKPEEEK (UniProt Q03701),-0.0843,-0.0993
CDC20_Q12834_313_VAEHHVATLSGHSQEVCGLR (UniProt Q12834),0.16,-0.0494
CCT7_Q99832_158_CAMTALSSK (UniProt Q99832),0.0692,0.0563
CENPF_P49454_2834_EECLSSQK (UniProt P49454),0.00823,0.152
CEP170_Q5SW79_30_DDCELMLQSR (UniProt Q5SW79),0.137,-0.0477
CCT7_Q99832_345_CQVFEETQIGGER (UniProt Q99832),-0.0141,0.0317
CDC123_O75794_9_EHVLHCQFSAWYPFFR (UniProt O75794),0.103,0.112
CDK5_Q00535_290_ISAEEALQHPYFSDFCPP (UniProt Q00535),-0.505,-0.0852
CDK8_P49336_64_QIEGTGISMSACR (UniProt P49336),-0.025,-0.0711
CCT4_P50991_379_ITGCASPGK (UniProt P50991),-0.00035,0.0945
CCT4_P50991_337_DIEREDIEFICK (UniProt P50991),-0.0115,0.163
CDAN1_Q8IWY9_400_LLCFSPALQGR (UniProt Q8IWY9),0.0602,0.285
CD44_P16070_77_ALSIGFETCR (UniProt P16070),-0.00517,0.0973
CENPF_P49454_2776_SLDCMHK (UniProt P49454),-0.135,0.0416
CD97_P48960_256_DTVCEDMTFSTWTPPPGVHSQTLSR (UniProt P48960),0.0551,-0.0929
CDCA2_Q69YH5_792_DCHCLGDVLIENTK (UniProt Q69YH5),0.0212,-0.255
